Article doi:10.1101/2021.05.27.445972
No constants are given. Whether binding was seen depends on the method and setting.

The chains behind the UniProt entries cited, without tags or fusion partners. Where a name states a change or a piece, a line headed by the entry shows the natural chain unless it says otherwise. A line that says so, or that is headed by a name, gives the form on record, which may keep a tag or linker.
human HELB (Q8NG08, form named): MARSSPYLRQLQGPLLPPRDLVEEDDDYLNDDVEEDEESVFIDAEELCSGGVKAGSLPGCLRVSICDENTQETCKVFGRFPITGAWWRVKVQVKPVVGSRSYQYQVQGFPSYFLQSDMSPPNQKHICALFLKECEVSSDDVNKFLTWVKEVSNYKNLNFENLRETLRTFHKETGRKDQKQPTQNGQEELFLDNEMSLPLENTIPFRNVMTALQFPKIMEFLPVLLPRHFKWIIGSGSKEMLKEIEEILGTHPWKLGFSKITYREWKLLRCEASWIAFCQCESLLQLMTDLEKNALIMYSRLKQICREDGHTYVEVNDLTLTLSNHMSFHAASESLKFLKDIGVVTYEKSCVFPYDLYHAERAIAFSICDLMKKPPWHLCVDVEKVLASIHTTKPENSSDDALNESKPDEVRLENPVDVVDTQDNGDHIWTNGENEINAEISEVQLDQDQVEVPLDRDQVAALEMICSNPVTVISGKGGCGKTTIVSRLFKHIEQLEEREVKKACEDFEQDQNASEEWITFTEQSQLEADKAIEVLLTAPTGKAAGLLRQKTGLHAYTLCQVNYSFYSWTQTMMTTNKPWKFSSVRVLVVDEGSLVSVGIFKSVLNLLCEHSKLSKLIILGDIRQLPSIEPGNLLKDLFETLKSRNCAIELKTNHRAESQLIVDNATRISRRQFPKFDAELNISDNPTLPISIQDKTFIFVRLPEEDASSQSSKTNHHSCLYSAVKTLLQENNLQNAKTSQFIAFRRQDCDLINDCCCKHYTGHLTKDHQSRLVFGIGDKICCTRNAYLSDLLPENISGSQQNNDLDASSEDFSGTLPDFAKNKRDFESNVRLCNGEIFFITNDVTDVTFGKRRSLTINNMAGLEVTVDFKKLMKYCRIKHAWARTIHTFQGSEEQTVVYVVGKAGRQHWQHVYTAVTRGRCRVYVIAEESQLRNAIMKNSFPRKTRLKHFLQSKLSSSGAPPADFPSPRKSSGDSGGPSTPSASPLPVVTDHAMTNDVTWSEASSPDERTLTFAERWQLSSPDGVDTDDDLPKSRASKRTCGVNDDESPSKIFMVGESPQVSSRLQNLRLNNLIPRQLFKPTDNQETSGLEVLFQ

Molecular target: human HELB (human) (UniProt Q8NG08)
Experiment: SEC-MALS

- binding: no binding
Substance: human HELB (from UniProt Q8NG08 1-1087) (enzyme)
